The supplement of paper PMC3334620
In all, about 33,000 sequences were measured (“E-score (-0.5 to 0.5)”: median about -0.0034, highest 2% from about 0.25 on). The list shows a part of the results.

target: T1, Yap3 (UniProt P38749); assay: PBM E-score (8-mer binding enrichment) (E-score (-0.5 to 0.5)); higher = stronger / more preferred TF binding; conditions: protein concentration: 100 nM; construct: GST-full length
T1 sequence: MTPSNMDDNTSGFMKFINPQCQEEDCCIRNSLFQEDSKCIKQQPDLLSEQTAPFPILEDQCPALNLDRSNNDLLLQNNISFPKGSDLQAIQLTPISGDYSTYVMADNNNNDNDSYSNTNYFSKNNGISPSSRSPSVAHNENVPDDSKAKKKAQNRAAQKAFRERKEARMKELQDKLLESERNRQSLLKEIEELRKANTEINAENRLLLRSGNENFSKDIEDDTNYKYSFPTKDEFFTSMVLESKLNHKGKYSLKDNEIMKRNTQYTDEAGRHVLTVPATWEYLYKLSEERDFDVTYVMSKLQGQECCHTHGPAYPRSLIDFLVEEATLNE
Outline: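 Detection of bound protein used fluorescent anti-GST, with scans normalised by masliner. The proteins were GST-tagged yeast transcription factors applied at about 100-200 nM to universal all-10-mer Agilent arrays made double-stranded by primer extension. Each ungapped eight-base word, pooled with its reverse complement, was scored with an E-score from the Universal PBM Analysis Suite.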

| Sequence | PBM E-score |
| --- | --- |
| ATCAGAGA | 0.0237 |
| CATTCTAA | 0.0609 |
| AATCACTC | 0.0336 |
| ACCCGCGT | -0.16 |
| GGGGCAGA | -0.0806 |
| GTTTCGCA | -0.0743 |
| CATATACC | -0.0636 |
| TACTATCA | 0.172 |
| AGGTTTCA | 0.0131 |
| GAAGTGTC | 0.0127 |
| ACTGAGTG | 0.0252 |
| CCTGCTGC | -0.0918 |
| ACTAAGCA | 0.0694 |
| TGCCACCA | -0.258 |
| ACTGATAG | 0.0655 |
| ACGTTAAG | 0.0512 |
| AGTAGGAC | -0.0996 |
| AGATCAGA | -0.0379 |
| CGTTCTCC | -0.0298 |
| ACCTAAGC | 0.0579 |
| CGGATACC | -0.0378 |
| CGGACCGC | -0.317 |

| Sequence | PBM E-score |
| --- | --- |
| AATCTAGA | -0.0627 |
| GGTGCTCA | -0.14 |
| ATCTAACG | 0.0542 |
| AGAAGCAC | -0.0604 |
| TGAAGACA | -0.0243 |
| GATAAGAA | 0.124 |
| CCCGGCCA | -0.287 |
| CGCGCCGA | -0.036 |
| AGCCGACT | -0.216 |
| ACAAACAG | 0.118 |
| TCTGGGCA | -0.171 |
| AGAACGAA | 0.233 |
| CGAGCATC | 0.00988 |
| AGCCGTAC | 0.0242 |
| GAACCAAA | -0.0377 |
| AGCATAAA | 0.12 |
| AGCCACCC | -0.369 |
| ACCGAAAT | 0.0947 |
| AAAGGTAT | 0.0985 |
| AGCAGTCG | -0.15 |
| ACGTCCAC | -0.0493 |
| AGCCCTTC | -0.275 |

Taken from above:
Entry of CGGATACC under PBM E-score: -0.0378
Entry of AGCATAAA under PBM E-score: 0.12
Entry of ACGTCCAC under PBM E-score: -0.0493
Entry of ACCTAAGC under PBM E-score: 0.0579
Entry of ACCGAAAT under PBM E-score: 0.0947
Entry of ACGTTAAG under PBM E-score: 0.0512

Following part:

| Sequence | PBM E-score |
| --- | --- |
| CAGCTGCA | -0.168 |
| CAAGTCTC | -0.245 |
| GCTGCGCC | -0.152 |
| CAACTAAG | 0.0225 |
| ACGGTAAA | 0.206 |
| ACTCCAAG | -0.109 |
| TAAAGTGA | 0.263 |
| AAGATAAT | 0.207 |
| GCGGTCAA | -0.00885 |
| CCGCGGTC | -0.222 |
| CATATTTA | 0.185 |
| GCCCTAGC | -0.087 |
| AGTGGGGC | -0.288 |
| GAAGTGCA | -0.02 |
| TCACGTCA | 0.147 |
| TTTGCAAA | 0.174 |
| GTCTAGCA | 0.0493 |
| CCCTCGAG | -0.121 |
| CATCTCGC | 0.0155 |
| AGCTAGTC | 0.0172 |
| AACTGTCA | 0.179 |
| ACCTGCAG | -0.17 |

| Sequence | PBM E-score |
| --- | --- |
| AGTTGCGA | 0.199 |
| AGAGCGAC | -0.0543 |
| AGATGACG | 0.108 |
| AAAAACGC | 0.147 |
| AAGACGTC | -0.0582 |
| CCTATGAG | -0.11 |
| GAGTTGCC | 0.0726 |
| ACAATGCG | 0.114 |
| ACAGTGTA | 0.0731 |
| ACCCTTGA | -0.0607 |
| CGCTATAA | 0.0733 |
| TCGGGTCA | 0.0231 |
| AGCCAGTG | -0.215 |
| ATCCGCCG | 0.032 |
| AGTTGTTA | 0.114 |
| AAGCGTGT | -0.124 |
| ACAATGTC | 0.141 |
| AAAAGTGG | 0.195 |
| CCCTGCGG | -0.346 |
| AACACTCT | 0.0132 |
